Assay results from PubChem BioAssay AID624465 (National Center for Advancing Translational Sciences (NCATS), 2012).
The whole screen tested about 360,000 compounds, of which about 300 (0.083%) were called active. These results got no clear call from the source, so the numbers are uncertain. Rule as the data show it: active = activation above about 40%; inconclusive = between about 15% and that limit; inactive = weaker than that.

Protein sequences, listed by entry. Tags and fused reporters are not part of them.
UniProt P14416, whole entry: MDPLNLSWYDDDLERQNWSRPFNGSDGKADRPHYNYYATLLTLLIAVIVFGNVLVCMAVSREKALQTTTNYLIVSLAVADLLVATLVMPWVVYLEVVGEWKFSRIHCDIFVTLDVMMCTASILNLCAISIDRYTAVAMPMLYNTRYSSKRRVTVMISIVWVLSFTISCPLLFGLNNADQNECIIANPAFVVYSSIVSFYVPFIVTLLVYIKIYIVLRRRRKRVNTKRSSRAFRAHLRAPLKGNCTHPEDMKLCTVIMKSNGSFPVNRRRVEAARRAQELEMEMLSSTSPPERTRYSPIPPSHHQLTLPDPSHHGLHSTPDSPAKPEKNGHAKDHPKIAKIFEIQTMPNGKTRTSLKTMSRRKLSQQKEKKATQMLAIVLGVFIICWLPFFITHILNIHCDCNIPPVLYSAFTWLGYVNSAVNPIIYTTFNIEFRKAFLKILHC

molecular target: D(2) dopamine receptor (Homo sapiens) (UniProt P14416); experiment: Beta-Arrestin HTS for Positive Allosteric Modulators of the Human D2 Dopamine Receptor: Agonists; conditions: DiscoveRx PathHunter D2 beta-arrestin, luminescence, 90 min; active compounds read high; 100% = 57 uM dopamine signal
Excerpt: There is great interest in identifying small molecule ligands for G-protein coupled receptors (GPCRs) as nearly 50% of all FDA-approved drugs target these important receptor proteins. […] Amongst the dopamine receptors (DARs), the D2 is arguably one of the most validated drug targets in neurology and psychiatry. For instance, all receptor-based antiparkinsonian drugs primarily work via stimulating the D2 DAR, whereas all FDA-approved antipsychotic agents are antagonists of this receptor. The D2 DAR is also therapeutically targeted in other disorders such as restless legs syndrome, tardive dyskinesia, Tourette's syndrome, and hyperprolactinemia.
To this end, a miniaturized qHTS screen was developed to be screened against the Molecular Libraries Small Molecule Repository (MLSMR). This assay seeks to identify agonists against the D2 DAR.
NIH Molecular Libraries Probe Production Network [MLPCN] […]
DiscoveRx D2 cells were thawed from frozen stock and seeded at 2,100 cells/ 3 uL/well media (DiscoveRx Plating Reagent 2) with MultiDrop Combi dispenser (Thermo Scientific, Logan, UT) onto white tissue culture treated 1536-well Aurora plates (Brooks Automation, Chelmsford, MA) and allowed to attach overnight at 37 deg C, 5% CO2. […] The plates were incubated at ambient temperature for 1 hour and then the luminescent signal was read on ViewLux plate reader (PerkinElmer, Waltham, MA).

SMILES	activation
O=[N+]([O-])c1cc([N+](=O)[O-])c(NCC2CCS(=O)(=O)C2)c([N+](=O)[O-])c1 (stereo unspecified)	inconclusive: 21%
